{"source": "PubChem BioAssay AID1508588 (Peter MacCallum Cancer Centre, 2020)", "screen": "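Genome-wide search for knock-downs that heighten vemurafenib action in melanoma cells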 (primary screen)", "cell system": "human WM266.4 melanoma cells (BRAF V600 mutant)", "reagent": "siRNA pool against human genes, 40 nM", "timing": "96 h from transfection to read-out", "treatment": "vemurafenib 300 nM (about IC25), added 48 h after transfection, for 48 h; comparison arm got DMSO vehicle only", "read-out": "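Ratios to non-targeting siRNA for cell gain, counted as DAPI nuclei after minus before drug and averaged over two replicates, and for absorbance-read medium lactate per cell; both binned into fold-change classes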", "scale": "cell gain with vemurafenib: higher = more cell gain than with non-targeting siRNA; lactate per cell with vemurafenib: higher = more lactate made per cell", "active means": "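Enhancement is called by pairing each knock-down's vehicle-arm and drug-arm fold-change classes for viability or glycolysis; which class combinations qualify is not given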", "meaning of the calls": "active = enhances vemurafenib effect; inactive = no enhancement seen", "note": "Here is one part, drawn at random, of about 18,000 deposited reagents. 790 of them (4.4%) were called active. 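Calls rest on a combination of fold-change classes in drug and vehicle arms, not all shown here.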"}
{"target gene": "NUDT1", "PubChem SID": "SID134310815", "cell gain with vemurafenib": 0.41, "lactate per cell with vemurafenib": 0.68, "call": "inactive"}
{"target gene": "BCAT2", "PubChem SID": "SID152149976", "cell gain with vemurafenib": 0.84, "lactate per cell with vemurafenib": 0.37, "call": "inactive"}
{"target gene": "VASP", "PubChem SID": "SID152149632", "cell gain with vemurafenib": 0.47, "lactate per cell with vemurafenib": -0.15, "call": "active"}
{"target gene": "INCA1", "PubChem SID": "SID134330014", "cell gain with vemurafenib": 0.52, "lactate per cell with vemurafenib": 1.12, "call": "inactive"}
{"target gene": "NISCH", "PubChem SID": "SID152156098", "cell gain with vemurafenib": 0.75, "lactate per cell with vemurafenib": 1.46, "call": "inactive"}
{"target gene": "PRKD3", "PubChem SID": "SID56478959", "cell gain with vemurafenib": 0.53, "lactate per cell with vemurafenib": 1.34, "call": "inactive"}
{"target gene": "WFIKKN2", "PubChem SID": "SID135623706", "cell gain with vemurafenib": 0.61, "lactate per cell with vemurafenib": 0.86, "call": "inactive"}
{"target gene": "PIAS4", "PubChem SID": "SID134311788", "cell gain with vemurafenib": 0.61, "lactate per cell with vemurafenib": 0.52, "call": "inactive"}
{"target gene": "HNF4A", "PubChem SID": "SID135620668", "cell gain with vemurafenib": 0.72, "lactate per cell with vemurafenib": 1, "call": "inactive"}
{"target gene": "CYP7A1", "PubChem SID": "SID134313645", "cell gain with vemurafenib": 0.99, "lactate per cell with vemurafenib": 0.82, "call": "inactive"}
{"target gene": "GALNT17", "PubChem SID": "SID134317260", "cell gain with vemurafenib": 0.77, "lactate per cell with vemurafenib": 0.66, "call": "inactive"}
{"target gene": "MTERF3", "PubChem SID": "SID134320742", "cell gain with vemurafenib": 0.83, "lactate per cell with vemurafenib": 0.84, "call": "inactive"}
{"target gene": "SCNN1A", "PubChem SID": "SID135621203", "cell gain with vemurafenib": 0.93, "lactate per cell with vemurafenib": 0.12, "call": "inactive"}
{"target gene": "CLMP", "PubChem SID": "SID134315225", "cell gain with vemurafenib": 0.74, "lactate per cell with vemurafenib": 1.07, "call": "inactive"}

Copied from the entries so far (3 entries):
{"target gene": "HNF4A", "PubChem SID": "SID135620668", "cell gain with vemurafenib": 0.72, "lactate per cell with vemurafenib": 1, "call": "inactive"}
{"target gene": "CYP7A1", "PubChem SID": "SID134313645", "cell gain with vemurafenib": 0.99, "lactate per cell with vemurafenib": 0.82, "call": "inactive"}
{"target gene": "GALNT17", "PubChem SID": "SID134317260", "cell gain with vemurafenib": 0.77, "lactate per cell with vemurafenib": 0.66, "call": "inactive"}

The list goes on.
{"target gene": "DERL1", "PubChem SID": "SID135621999", "cell gain with vemurafenib": 0.69, "lactate per cell with vemurafenib": 0.42, "call": "inactive"}
{"target gene": "PADI1", "PubChem SID": "SID152153704", "cell gain with vemurafenib": 0.9, "lactate per cell with vemurafenib": 0.58, "call": "inactive"}
{"target gene": "H2AZ1", "PubChem SID": "SID152154596", "cell gain with vemurafenib": 0.87, "lactate per cell with vemurafenib": 0.9, "call": "inactive"}
{"target gene": "CCDC60", "PubChem SID": "SID134322275", "cell gain with vemurafenib": 0.4, "lactate per cell with vemurafenib": 0.1, "call": "active"}
{"target gene": "PIP5KL1", "PubChem SID": "SID56479217", "cell gain with vemurafenib": 0.22, "lactate per cell with vemurafenib": 1.81, "call": "inactive"}
{"target gene": "NEK8", "PubChem SID": "SID56478901", "cell gain with vemurafenib": 0.01, "lactate per cell with vemurafenib": 2.02, "call": "inactive"}
{"target gene": "BKGD", "PubChem SID": "SID134320767", "cell gain with vemurafenib": 0.47, "lactate per cell with vemurafenib": 0.45, "call": "active"}
{"target gene": "BRME1", "PubChem SID": "SID134322567", "cell gain with vemurafenib": 0.68, "lactate per cell with vemurafenib": 2, "call": "inactive"}
{"target gene": "UBQLN4", "PubChem SID": "SID134324783", "cell gain with vemurafenib": -0.04, "lactate per cell with vemurafenib": 1.69, "call": "inactive"}
{"target gene": "OR5K2", "PubChem SID": "SID134329876", "cell gain with vemurafenib": -0.01, "lactate per cell with vemurafenib": 1.46, "call": "inactive"}
{"target gene": "DEFB114", "PubChem SID": "SID135625244", "cell gain with vemurafenib": 0.57, "lactate per cell with vemurafenib": 2.39, "call": "inactive"}
{"target gene": "CDRT4", "PubChem SID": "SID135623481", "cell gain with vemurafenib": 0.45, "lactate per cell with vemurafenib": 1.32, "call": "inactive"}
{"target gene": "SYT5", "PubChem SID": "SID152153194", "cell gain with vemurafenib": 0.82, "lactate per cell with vemurafenib": 0.6, "call": "inactive"}
{"target gene": "FCGR2B", "PubChem SID": "SID135623029", "cell gain with vemurafenib": 0.28, "lactate per cell with vemurafenib": 1.09, "call": "inactive"}
{"target gene": "ZC3H4", "PubChem SID": "SID152151069", "cell gain with vemurafenib": 0.81, "lactate per cell with vemurafenib": 0.74, "call": "inactive"}
{"target gene": "KRTAP10-2", "PubChem SID": "SID135625057", "cell gain with vemurafenib": 0.7, "lactate per cell with vemurafenib": 1, "call": "inactive"}
{"target gene": "STRN", "PubChem SID": "SID135623776", "cell gain with vemurafenib": 0.96, "lactate per cell with vemurafenib": 0.78, "call": "inactive"}
{"target gene": "LPAR3", "PubChem SID": "SID134310659", "cell gain with vemurafenib": 0.35, "lactate per cell with vemurafenib": 0.85, "call": "inactive"}
{"target gene": "ASB13", "PubChem SID": "SID134317179", "cell gain with vemurafenib": 0.57, "lactate per cell with vemurafenib": 1.23, "call": "inactive"}
{"target gene": "EXT1", "PubChem SID": "SID134315394", "cell gain with vemurafenib": 0.71, "lactate per cell with vemurafenib": 1.04, "call": "inactive"}
{"target gene": "SCFD1", "PubChem SID": "SID134315320", "cell gain with vemurafenib": 0.6, "lactate per cell with vemurafenib": 0.55, "call": "inactive"}
{"target gene": "ADIPOR2", "PubChem SID": "SID134312742", "cell gain with vemurafenib": 0.56, "lactate per cell with vemurafenib": 1.31, "call": "inactive"}
{"target gene": "INS-IGF2", "PubChem SID": "SID135625663", "cell gain with vemurafenib": 0.79, "lactate per cell with vemurafenib": 1.09, "call": "inactive"}
{"target gene": "NAA38", "PubChem SID": "SID135622832", "cell gain with vemurafenib": 0, "lactate per cell with vemurafenib": 0, "call": "inactive"}
{"target gene": "BAD", "PubChem SID": "SID134310120", "cell gain with vemurafenib": 0.68, "lactate per cell with vemurafenib": 0.6, "call": "active"}
{"target gene": "MXD3", "PubChem SID": "SID134313680", "cell gain with vemurafenib": 1, "lactate per cell with vemurafenib": 0.73, "call": "inactive"}
